Data source: PubChem BioAssay AID1259267 (Sanger Institute, 2017)
The deposit covers 794 reagents; below is a part drawn at random. Over the whole deposit, 9 (1.1%) got an active call. 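Viability capped at 1; calls reflect loss of viability from knock-down alone, not synergy with drugs.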 Unmarked entries are inactive. Not given: the amount of reagent, the time to read-out.

- Assay: 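Which kinases and bowel-cancer genes GP5D cells need, with or without anchor drugs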 (primary screen)
- Cell system: human GP5D colorectal cancer cells
- Knock-down reagent: siRNA pool against human genes
- Challenge: anchor drugs at low dose: BYL719 1 µM, cetuximab 5 µg/ml, trametinib 10 nM, or DMSO vehicle
- Detection: 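Viability against non-targeting pool, replicate mean: robust z-score for knock-down alone, fraction with DMSO, synergy with BYL719 1 µM, cetuximab 5 µg/ml, trametinib 10 nM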
- Direction: robust z-score, knock-down alone and viability with DMSO: higher = more viable cells; synergy score with trametinib and synergy score with BYL719 and synergy score with cetuximab: higher = stronger synthetic lethal synergy with drug
- Call rule: 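Active (essential alone) if knock-down without drug gives robust z-score under -3; drug synergy does not count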
- Calls: active = essential alone; inactive = not essential

target | robust z-score, knock-down alone | viability with DMSO (fraction of control) | synergy score with trametinib | synergy score with BYL719 | synergy score with cetuximab
MAST3 | -1.94 | 0.415 | -0.0602 | -0.126 | -0.115
STK40 | 0.627 | 0.96 | 0.0763 | -0.218 | -0.177
MOK | -0.553 | 0.71 | 0.234 | -0.0212 | 0.17
ADGRL2 | -0.429 | 0.736 | 0.12 | -0.26 | -0.0755
ROCK2 | -0.651 | 0.689 | 0.103 | -0.0372 | -0.00152
TNK2 | 0.295 | 0.889 | -0.286 | -0.302 | -0.156
CSK | 0.817 | 1 | -0.197 | -0.282 | -0.142
NEK1 | -1.38 | 0.534 | -0.0103 | -0.286 | -0.182
PKIA | 0.817 | 1 | -0.197 | -0.214 | -0.142
FRK | 0.817 | 1 | -0.197 | -0.361 | -0.142
LYN | 0.693 | 0.974 | 0.122 | 0.109 | -0.119
CDK11B | -2.55 | 0.286 | -0.0504 | -0.186 | -0.22
EPHB6 | 0.817 | 1 | 0.177 | -0.146 | 0.0425
GRK6 | 0.246 | 0.879 | 0.0293 | -0.145 | 0.102
FGFR4 | 0.524 | 0.938 | -0.247 | -0.271 | -0.195
CAMK2A | 0.0419 | 0.836 | -0.198 | -0.261 | -0.159
SGK1 | -0.333 | 0.756 | -0.0717 | -0.148 | -0.29
OBSCN | 0.817 | 1 | 0.0692 | -0.361 | -0.142
CDK10 | -1.69 | 0.469 | 0.0941 | -0.0312 | -0.126
TWF1 | -1.03 | 0.608 | -0.133 | -0.218 | -0.0873
CAMKK1 | 0.607 | 0.956 | -0.00298 | -0.11 | -0.18
ROR1 | 0.0324 | 0.834 | 0.0858 | -0.343 | -0.166
BMAL1 | -1.1 | 0.593 | -0.0832 | -0.193 | 0.0489
MAP2K4 | 0.817 | 1 | -0.197 | -0.361 | -0.142
PRKX | 0.817 | 1 | -0.197 | -0.217 | -0.142
PI4KA | 0.0403 | 0.835 | 0.0505 | -0.194 | -0.0141
PRKG2 | 0.817 | 1 | 0.192 | 0.0285 | -0.074
PIK3R1 | 0.369 | 0.905 | 0.068 | -0.238 | -0.0646
TNIK | 0.332 | 0.897 | 0.186 | -0.0554 | 0.0801
CAMKK2 | -1.25 | 0.562 | -0.141 | -0.434 | -0.0348
PANK2 | -1.38 | 0.534 | -0.1 | -0.208 | -0.168
GALK2 | -1.17 | 0.578 | 0.28 | -0.104 | 0.135
TEC | 0.331 | 0.897 | -0.0485 | -0.0972 | -0.144
AK1 | 0.379 | 0.907 | 0.161 | -0.0664 | -0.0564

2 entries already listed, arranged by “robust z-score, knock-down alone”, lowest first.
target | robust z-score, knock-down alone | viability with DMSO (fraction of control) | synergy score with trametinib | synergy score with BYL719 | synergy score with cetuximab
NEK1 | -1.38 | 0.534 | -0.0103 | -0.286 | -0.182
PKIA | 0.817 | 1 | -0.197 | -0.214 | -0.142
